Data: PMC5442467
Results are given in words; binding and its absence hold for the method and conditions named. Binding seen in cells or lysates may run through a third protein. Some entries that bind do so weakly or less than the wild type. Values belong to the substance of their own block, whether it stands above or below them.

Protein sequences, listed by entry. Tags and fused reporters are not part of them. Lines headed by an entry give the natural chain unless they say otherwise; changes in a name come on top. Residues count along the entry.
UniProt P11679: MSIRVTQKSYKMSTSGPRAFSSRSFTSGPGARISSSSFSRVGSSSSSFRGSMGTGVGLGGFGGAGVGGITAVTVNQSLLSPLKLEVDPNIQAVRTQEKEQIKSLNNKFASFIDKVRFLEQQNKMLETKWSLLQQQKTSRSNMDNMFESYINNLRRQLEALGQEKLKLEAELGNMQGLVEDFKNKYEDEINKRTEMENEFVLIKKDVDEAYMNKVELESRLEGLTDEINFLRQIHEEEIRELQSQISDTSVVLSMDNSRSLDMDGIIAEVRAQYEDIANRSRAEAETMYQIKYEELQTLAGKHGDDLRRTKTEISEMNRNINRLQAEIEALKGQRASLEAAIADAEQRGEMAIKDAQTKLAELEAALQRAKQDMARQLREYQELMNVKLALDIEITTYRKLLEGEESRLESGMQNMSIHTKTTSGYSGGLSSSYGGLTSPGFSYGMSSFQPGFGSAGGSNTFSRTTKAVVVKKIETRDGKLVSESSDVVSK
UniProt P05784: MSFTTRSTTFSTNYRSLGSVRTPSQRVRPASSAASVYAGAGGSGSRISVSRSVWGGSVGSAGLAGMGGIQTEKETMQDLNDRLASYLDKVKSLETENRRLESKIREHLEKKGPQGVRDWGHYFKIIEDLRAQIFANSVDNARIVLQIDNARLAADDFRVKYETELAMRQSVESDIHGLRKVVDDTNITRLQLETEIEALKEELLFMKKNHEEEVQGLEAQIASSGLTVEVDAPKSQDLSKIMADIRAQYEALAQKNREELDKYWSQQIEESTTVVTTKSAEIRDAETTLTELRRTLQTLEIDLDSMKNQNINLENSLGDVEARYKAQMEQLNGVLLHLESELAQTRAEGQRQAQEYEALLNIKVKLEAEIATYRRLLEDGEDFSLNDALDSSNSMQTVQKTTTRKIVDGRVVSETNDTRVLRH
UniProt P05787: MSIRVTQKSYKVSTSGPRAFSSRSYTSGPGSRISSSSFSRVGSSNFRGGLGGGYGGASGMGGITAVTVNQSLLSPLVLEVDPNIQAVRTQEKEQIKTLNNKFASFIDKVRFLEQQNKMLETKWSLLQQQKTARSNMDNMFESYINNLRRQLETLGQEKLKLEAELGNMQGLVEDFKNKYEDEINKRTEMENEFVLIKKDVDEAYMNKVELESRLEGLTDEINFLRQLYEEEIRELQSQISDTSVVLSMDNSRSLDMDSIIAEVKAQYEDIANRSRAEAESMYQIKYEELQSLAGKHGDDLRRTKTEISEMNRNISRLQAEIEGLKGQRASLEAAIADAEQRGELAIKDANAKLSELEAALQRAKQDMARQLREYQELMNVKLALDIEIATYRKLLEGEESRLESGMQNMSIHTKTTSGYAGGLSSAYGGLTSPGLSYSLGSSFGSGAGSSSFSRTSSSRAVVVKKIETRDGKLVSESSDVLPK
UniProt P05783: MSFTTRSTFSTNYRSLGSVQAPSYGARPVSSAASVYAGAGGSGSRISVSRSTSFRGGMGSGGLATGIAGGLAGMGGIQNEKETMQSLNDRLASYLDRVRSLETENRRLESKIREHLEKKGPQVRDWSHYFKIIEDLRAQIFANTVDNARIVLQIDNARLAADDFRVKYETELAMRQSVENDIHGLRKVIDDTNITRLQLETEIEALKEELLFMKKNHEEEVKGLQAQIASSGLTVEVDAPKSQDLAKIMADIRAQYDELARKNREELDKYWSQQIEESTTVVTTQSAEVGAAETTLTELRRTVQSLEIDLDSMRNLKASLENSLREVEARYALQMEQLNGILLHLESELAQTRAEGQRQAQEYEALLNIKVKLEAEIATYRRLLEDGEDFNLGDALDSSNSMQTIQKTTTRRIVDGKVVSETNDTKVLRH
UniProt Q01705: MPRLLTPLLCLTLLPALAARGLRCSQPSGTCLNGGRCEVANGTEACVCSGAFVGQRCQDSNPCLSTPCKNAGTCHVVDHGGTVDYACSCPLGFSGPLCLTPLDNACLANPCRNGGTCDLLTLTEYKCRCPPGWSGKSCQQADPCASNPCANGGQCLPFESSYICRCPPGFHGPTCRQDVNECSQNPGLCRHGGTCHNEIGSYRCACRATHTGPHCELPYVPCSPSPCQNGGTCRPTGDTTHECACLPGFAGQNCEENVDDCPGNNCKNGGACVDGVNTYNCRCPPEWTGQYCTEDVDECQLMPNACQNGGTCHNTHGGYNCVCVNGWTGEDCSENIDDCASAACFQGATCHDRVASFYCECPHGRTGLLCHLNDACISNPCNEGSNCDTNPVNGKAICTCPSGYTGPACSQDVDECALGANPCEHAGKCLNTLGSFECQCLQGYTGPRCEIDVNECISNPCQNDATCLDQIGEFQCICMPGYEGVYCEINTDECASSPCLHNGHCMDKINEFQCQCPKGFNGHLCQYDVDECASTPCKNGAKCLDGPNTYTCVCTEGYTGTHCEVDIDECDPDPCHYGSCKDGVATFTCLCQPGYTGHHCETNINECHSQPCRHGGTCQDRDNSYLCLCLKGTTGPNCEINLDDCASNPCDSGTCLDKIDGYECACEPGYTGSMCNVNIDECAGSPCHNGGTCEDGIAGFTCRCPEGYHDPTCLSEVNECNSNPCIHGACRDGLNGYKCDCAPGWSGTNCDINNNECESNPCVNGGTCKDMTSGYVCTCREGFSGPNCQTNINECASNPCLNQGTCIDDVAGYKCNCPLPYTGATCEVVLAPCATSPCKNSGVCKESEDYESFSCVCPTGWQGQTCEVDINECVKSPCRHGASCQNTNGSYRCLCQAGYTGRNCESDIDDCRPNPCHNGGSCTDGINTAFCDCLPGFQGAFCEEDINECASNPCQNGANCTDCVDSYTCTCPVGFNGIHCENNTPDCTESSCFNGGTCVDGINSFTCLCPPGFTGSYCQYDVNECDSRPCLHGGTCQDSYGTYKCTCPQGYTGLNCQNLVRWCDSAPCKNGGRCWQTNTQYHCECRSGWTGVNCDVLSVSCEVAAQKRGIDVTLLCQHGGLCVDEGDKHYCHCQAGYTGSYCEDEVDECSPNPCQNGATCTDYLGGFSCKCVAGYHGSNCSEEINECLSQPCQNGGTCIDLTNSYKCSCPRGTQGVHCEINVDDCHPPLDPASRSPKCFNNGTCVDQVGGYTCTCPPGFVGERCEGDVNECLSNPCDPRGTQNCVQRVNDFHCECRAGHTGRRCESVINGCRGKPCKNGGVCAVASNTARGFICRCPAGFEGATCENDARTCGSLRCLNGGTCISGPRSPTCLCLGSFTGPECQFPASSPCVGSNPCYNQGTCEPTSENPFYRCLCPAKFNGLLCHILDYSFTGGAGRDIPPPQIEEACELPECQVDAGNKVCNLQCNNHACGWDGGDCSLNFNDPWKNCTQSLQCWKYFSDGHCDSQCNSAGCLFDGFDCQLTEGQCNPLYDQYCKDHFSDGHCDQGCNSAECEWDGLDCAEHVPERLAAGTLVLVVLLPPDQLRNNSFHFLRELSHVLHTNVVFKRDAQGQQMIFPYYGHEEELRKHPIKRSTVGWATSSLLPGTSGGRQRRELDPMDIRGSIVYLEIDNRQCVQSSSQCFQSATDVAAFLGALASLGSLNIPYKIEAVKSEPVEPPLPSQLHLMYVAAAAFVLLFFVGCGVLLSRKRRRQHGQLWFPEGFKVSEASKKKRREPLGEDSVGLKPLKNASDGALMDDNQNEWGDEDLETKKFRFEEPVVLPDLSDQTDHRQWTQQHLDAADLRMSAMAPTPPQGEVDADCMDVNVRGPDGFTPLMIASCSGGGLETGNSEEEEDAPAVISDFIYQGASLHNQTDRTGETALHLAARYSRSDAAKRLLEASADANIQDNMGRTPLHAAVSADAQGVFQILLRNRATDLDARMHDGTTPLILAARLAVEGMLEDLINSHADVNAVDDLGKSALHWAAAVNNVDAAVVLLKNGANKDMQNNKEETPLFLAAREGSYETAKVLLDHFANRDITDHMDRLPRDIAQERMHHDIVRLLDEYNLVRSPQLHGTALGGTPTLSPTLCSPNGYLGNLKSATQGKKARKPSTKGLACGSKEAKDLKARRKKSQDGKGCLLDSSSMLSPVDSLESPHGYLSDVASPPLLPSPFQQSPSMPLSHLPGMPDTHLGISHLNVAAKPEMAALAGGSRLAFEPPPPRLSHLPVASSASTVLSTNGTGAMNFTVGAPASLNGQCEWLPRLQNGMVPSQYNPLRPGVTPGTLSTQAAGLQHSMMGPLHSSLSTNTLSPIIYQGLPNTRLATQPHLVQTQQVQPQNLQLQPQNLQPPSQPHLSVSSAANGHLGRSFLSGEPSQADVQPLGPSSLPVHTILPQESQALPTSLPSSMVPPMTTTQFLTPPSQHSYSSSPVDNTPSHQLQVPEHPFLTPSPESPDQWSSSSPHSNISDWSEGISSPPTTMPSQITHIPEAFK
full-length Notch1 receptor (FLN) overexpressed in MEFvim-/- cells: residues 19-2531 of Q01705

Assays:
[1] = biological target: K8/K18 (keratin 8 / keratin 18), endogenous in mouse colon epithelium (mouse (endogenous in colon epithelium)) (UniProt P11679+P05784); test: co-IP; mouse proximal and distal colon epithelium lysate (25 mM Hepes pH 8.0, 100 mM NaCl, 5 mM EDTA, 0.5% Triton X-100), precleared; K8/K18 antibodies and protein-G/Sepharose; immunoblot for NICD; no-antibody control
[2] = biological target: K8/K18 endogenous in HEK 293 cells (human (endogenous in HEK 293)) (UniProt P05787+P05783); test: co-IP; HEK FLN 293 cell lysate; K18 antibody and protein-G/Sepharose; immunoblot for FLN
[3] = biological target: full-length Notch1 receptor (FLN) overexpressed in MEFvim-/- cells (UniProt Q01705); test: co-IP; MEFvim-/- cells transfected with Notch1 constructs with and without K8/K18, lysed 24 h after transfection; goat anti-full length Notch1 c-20 antibody (all Notch1 forms) and protein-G/Sepharose; immunoblot for K8 and K18; no-antibody control

binding [1]: binds
Substance: Notch1 intracellular domain (NICD), endogenous in mouse colon epithelium (from UniProt Q01705 1744-2531) (domain or fragment)

binding [2]: binds
Substance: full-length Notch1 receptor (FLN) overexpressed in HEK FLN 293 cells (from UniProt Q01705 19-2531)

binding [3]: binds
Substance: human K8/K18 overexpressed in MEFvim-/- cells (from UniProt P05787 1-483; P05783 1-430) (complex)
